No constants are given. Whether binding was seen depends on the method and setting. Binding seen in cells or lysates may run through a third protein. Some binding calls cover weakened binding; strength is not graded here. For some of these results: Sequences can lack the tags named with a protein.

Chains of the proteins cited; added tags and fusions are not shown. Residues count along the entry.
UniProt P29317, residues 24-976: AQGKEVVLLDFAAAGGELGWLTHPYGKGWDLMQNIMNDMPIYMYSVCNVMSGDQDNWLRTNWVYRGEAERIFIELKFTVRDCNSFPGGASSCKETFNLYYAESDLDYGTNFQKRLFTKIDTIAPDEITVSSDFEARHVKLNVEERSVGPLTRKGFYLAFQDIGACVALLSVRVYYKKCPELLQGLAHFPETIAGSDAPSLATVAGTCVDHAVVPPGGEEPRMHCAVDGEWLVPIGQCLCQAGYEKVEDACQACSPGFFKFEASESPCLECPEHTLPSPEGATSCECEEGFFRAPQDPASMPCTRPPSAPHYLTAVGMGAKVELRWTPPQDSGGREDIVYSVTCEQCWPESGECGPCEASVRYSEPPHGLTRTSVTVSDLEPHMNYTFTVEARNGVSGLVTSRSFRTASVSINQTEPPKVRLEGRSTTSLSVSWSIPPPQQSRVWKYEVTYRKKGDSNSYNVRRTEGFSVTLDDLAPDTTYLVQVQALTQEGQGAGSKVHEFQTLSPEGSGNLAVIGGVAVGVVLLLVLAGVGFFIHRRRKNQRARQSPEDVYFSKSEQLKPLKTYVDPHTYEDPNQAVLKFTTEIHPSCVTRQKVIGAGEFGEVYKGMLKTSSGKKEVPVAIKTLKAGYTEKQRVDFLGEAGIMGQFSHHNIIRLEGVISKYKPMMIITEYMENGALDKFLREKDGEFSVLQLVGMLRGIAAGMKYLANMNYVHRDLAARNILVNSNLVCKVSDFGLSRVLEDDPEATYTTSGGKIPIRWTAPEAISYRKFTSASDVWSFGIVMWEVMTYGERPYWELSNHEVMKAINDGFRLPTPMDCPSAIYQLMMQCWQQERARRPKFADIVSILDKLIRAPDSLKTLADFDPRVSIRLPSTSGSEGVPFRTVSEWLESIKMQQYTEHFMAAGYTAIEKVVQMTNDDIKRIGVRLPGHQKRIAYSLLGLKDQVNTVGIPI
UniProt Q01974, residues 34-943: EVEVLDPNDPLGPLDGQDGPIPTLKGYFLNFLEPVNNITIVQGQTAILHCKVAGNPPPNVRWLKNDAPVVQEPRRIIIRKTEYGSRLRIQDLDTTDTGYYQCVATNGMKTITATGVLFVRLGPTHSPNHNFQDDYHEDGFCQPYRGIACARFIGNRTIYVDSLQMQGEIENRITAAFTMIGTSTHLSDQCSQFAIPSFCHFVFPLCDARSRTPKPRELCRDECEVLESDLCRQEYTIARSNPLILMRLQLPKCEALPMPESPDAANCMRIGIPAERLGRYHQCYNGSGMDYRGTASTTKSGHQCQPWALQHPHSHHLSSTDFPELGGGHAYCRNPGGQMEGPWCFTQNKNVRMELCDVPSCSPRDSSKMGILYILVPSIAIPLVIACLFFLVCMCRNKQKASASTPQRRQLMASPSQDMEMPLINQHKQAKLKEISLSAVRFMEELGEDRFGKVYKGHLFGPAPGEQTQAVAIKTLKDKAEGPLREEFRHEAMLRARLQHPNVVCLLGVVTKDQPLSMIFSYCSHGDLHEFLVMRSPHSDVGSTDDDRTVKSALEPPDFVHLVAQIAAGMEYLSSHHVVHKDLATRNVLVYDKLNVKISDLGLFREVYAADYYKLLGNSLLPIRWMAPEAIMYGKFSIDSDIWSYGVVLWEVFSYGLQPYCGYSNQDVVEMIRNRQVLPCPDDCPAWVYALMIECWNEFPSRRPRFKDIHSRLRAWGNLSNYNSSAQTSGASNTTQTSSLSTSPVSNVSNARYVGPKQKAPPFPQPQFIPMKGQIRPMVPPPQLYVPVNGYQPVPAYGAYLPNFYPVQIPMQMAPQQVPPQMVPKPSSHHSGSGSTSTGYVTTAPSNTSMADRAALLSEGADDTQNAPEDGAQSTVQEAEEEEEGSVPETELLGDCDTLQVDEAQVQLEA

Common to all, as to assay: co-IP
One test deals with T1, HA-tagged RAI14 (human) (UniProt Q9P0K7).
T1 sequence: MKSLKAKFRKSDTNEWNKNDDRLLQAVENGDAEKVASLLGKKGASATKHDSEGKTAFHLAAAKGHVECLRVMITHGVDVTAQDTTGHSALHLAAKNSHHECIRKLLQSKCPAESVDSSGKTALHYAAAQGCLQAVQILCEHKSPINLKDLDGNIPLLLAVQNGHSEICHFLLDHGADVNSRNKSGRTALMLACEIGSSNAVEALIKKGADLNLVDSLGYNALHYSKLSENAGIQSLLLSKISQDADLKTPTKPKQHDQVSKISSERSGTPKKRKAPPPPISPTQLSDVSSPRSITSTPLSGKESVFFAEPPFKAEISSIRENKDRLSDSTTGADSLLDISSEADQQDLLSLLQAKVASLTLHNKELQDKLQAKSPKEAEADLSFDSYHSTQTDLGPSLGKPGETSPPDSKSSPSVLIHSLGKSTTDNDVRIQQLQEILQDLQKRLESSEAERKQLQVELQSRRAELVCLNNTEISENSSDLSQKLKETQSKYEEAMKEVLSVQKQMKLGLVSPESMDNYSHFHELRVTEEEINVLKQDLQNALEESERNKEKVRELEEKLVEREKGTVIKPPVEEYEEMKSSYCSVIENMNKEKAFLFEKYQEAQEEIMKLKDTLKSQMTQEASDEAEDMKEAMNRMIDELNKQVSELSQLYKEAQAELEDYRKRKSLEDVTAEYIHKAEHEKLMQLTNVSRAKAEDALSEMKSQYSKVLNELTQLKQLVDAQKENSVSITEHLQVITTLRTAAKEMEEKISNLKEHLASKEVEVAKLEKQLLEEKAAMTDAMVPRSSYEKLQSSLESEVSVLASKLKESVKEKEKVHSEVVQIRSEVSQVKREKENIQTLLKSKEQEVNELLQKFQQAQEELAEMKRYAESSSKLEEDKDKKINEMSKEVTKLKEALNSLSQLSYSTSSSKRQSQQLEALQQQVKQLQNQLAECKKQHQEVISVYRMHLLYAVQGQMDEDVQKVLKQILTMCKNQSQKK

The target in the next test is EPHA2-HA (human) (UniProt P29317).
Test [1] has as its target T2, HA-tagged PHACTR4 (human) (UniProt Q8IZ21).
T2 sequence: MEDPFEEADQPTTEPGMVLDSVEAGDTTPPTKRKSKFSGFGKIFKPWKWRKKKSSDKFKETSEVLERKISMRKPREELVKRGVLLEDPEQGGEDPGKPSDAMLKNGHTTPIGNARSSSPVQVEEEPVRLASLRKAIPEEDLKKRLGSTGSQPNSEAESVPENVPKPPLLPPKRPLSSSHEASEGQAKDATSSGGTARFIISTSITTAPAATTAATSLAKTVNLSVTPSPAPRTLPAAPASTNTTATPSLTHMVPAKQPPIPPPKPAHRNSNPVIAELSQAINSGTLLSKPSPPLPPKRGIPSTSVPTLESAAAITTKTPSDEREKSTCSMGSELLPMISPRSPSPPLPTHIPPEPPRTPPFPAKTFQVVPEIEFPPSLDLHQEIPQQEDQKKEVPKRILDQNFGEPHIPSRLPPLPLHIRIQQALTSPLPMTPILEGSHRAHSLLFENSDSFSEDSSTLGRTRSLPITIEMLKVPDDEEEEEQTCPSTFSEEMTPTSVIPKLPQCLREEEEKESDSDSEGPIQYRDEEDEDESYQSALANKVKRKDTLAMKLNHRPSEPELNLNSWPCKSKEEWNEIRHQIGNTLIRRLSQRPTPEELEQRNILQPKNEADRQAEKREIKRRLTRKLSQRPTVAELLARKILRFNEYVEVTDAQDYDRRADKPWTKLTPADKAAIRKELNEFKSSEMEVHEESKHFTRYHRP

For “ROR2 (endogenous) (from UniProt Q01974 34-943) (receptor)”, the binding entry (in the test with HA-tagged RAI14 (human); with EPHA2-HA (human); in test [1]) was “binds” throughout.

B1: VANGL1 (protein, UniProt Q8TAA9 1-524)
chain: MDTESTYSGYSYYSSHSKKSHRQGERTRERHKSPRNKDGRGSEKSVTIQPPTGEPLLGNDSTRTEEVQDDNWGETTTAITGTSEHSISQEDIARISKDMEDSVGLDCKRYLGLTVASFLGLLVFLTPIAFILLPPILWRDELEPCGTICEGLFISMAFKLLILLIGTWALFFRKRRADMPRVFVFRALLLVLIFLFVVSYWLFYGVRILDSRDRNYQGIVQYAVSLVDALLFIHYLAIVLLELRQLQPMFTLQVVRSTDGESRFYSLGHLSIQRAALVVLENYYKDFTIYNPNLLTASKFRAAKHMAGLKVYNVDGPSNNATGQSRAMIAAAARRRDSSHNELYYEEAEHERRVKKRKARLVVAVEEAFIHIQRLQAEEQQKAPGEVMDPREAAQAIFPSMARALQKYLRITRQQNYHSMESILQHLAFCITNGMTPKAFLERYLSAGPTLQYDKDRWLSTQWRLVSDEAVTNGLRDGIVFVLKCLDFSLVVNVKKIPFIILSEEFIDPKSHKFVLRLQSETSV
Take B1: in the test with HA-tagged RAI14 (human), the binding result was “binds”.

The values above are taken from paper doi:10.1101/2025.01.15.633117.
